Test results taken from paper PMC5109252.

By UniProt entry, the sequences of proteins in these tests, tags left out. Where a name states a change or a piece, a line headed by the entry shows the natural chain unless it says otherwise.
UniProt P17948: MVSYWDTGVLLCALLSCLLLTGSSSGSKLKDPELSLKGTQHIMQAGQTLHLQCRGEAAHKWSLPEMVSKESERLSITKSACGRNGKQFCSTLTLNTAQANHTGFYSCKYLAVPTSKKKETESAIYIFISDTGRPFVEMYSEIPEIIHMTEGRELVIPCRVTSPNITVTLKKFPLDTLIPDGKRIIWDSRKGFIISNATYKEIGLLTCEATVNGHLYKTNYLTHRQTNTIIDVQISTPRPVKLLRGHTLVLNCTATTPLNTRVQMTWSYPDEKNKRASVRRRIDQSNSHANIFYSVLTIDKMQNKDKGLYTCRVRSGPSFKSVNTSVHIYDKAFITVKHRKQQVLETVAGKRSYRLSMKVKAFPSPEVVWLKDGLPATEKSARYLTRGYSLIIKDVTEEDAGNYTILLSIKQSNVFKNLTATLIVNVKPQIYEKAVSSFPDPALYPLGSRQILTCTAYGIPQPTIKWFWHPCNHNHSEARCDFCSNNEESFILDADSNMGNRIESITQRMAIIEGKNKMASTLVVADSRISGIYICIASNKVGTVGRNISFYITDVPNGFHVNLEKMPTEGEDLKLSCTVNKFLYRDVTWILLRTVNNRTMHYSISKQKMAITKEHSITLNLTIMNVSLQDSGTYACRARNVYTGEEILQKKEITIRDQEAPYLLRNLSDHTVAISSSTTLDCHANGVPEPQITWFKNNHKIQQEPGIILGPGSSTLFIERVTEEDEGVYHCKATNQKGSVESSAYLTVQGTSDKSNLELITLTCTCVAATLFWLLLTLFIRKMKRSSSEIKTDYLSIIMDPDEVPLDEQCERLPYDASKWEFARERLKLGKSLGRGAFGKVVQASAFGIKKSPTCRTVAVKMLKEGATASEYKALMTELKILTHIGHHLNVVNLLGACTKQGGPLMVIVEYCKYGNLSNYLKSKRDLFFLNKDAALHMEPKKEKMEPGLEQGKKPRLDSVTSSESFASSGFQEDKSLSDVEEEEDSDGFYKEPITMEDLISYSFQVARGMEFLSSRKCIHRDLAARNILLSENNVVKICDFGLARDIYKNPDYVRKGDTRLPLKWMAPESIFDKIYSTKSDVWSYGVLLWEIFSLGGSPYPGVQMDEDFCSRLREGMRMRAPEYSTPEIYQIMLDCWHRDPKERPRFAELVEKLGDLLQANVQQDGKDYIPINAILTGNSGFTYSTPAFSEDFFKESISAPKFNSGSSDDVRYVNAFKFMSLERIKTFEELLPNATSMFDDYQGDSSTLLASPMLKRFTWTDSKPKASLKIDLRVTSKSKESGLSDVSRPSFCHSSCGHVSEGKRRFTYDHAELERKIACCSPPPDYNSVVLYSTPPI
UniProt P35968: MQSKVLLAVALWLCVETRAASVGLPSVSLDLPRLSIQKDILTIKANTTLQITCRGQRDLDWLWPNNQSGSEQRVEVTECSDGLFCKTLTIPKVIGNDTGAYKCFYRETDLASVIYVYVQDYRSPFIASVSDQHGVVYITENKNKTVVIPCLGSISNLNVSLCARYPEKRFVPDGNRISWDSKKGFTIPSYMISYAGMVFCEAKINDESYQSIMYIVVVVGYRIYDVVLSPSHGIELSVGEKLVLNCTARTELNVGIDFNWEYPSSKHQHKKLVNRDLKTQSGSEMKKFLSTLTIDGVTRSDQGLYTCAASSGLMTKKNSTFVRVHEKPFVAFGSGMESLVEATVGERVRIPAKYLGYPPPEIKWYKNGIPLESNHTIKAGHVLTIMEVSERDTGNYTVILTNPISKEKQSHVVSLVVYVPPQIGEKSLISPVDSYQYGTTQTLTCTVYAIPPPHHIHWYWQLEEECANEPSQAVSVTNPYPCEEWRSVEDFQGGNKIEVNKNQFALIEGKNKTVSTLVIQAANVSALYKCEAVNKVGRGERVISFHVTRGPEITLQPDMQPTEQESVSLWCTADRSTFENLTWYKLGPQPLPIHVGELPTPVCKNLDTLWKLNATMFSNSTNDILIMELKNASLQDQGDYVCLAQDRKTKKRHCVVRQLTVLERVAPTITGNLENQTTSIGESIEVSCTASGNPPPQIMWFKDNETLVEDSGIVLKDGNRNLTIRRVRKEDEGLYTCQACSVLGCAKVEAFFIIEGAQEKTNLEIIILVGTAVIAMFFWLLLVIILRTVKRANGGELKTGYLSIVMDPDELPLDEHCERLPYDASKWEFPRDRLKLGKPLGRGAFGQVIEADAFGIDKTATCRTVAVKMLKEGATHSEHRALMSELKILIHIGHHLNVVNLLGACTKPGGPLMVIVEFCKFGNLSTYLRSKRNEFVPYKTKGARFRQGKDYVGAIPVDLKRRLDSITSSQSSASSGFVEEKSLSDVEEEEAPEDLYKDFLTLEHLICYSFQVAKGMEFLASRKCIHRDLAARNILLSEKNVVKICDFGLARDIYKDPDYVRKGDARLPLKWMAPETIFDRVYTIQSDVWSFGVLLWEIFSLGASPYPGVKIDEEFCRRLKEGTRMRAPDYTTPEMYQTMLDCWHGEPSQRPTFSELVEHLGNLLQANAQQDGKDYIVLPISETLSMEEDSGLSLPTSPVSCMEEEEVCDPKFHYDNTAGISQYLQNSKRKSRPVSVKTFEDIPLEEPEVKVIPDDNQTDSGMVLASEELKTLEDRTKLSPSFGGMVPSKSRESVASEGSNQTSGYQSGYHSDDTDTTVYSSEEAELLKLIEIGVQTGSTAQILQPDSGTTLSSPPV

Key:
[1] = molecular target: FLT1 (VEGFR1) printed on the human ProtoArray (human) (UniProt P17948); experiment: peptide or protein array; Human ProtoArray Version 5.0 (~9500 recombinant proteins printed) probed with 80 ug purified His-SETD3 in probing buffer (0.1% Tween 20, 1% BSA, 10% PBS), 1.5 h; detected with anti-SETD3 and Alexa Fluor 647 anti-rabbit IgG; BSA-probed array as negative control; hits Z-score >3; two independent experiments; both purified
[2] = molecular target: KDR (VEGFR2) printed on the human ProtoArray (human) (UniProt P35968); experiment: as above

B1: recombinant His-SETD3 (enzyme, UniProt Q86TU7 1-594)
chain: MGKKSRVKTQKSGTGATATVSPKEILNLTSELLQKCSSPAPGPGKEWEEYVQIRTLVEKIRKKQKGLSVTFDGKREDYFPDLMKWASENGASVEGFEMVNFKEEGFGLRATRDIKAEELFLWVPRKLLMTVESAKNSVLGPLYSQDRILQAMGNIALAFHLLCERASPNSFWQPYIQTLPSEYDTPLYFEEDEVRYLQSTQAIHDVFSQYKNTARQYAYFYKVIQTHPHANKLPLKDSFTYEDYRWAVSSVMTRQNQIPTEDGSRVTLALIPLWDMCNHTNGLITTGYNLEDDRCECVALQDFRAGEQIYIFYGTRSNAEFVIHSGFFFDNNSHDRVKIKLGVSKSDRLYAMKAEVLARAGIPTSSVFALHFTEPPISAQLLAFLRVFCMTEEELKEHLLGDSAIDRIFTLGNSEFPVSWDNEVKLWTFLEDRASLLLKTYKTTIEEDKSVLKNHDLSVRAKMAIKLRLGEKEILEKAVKSAAVNREYYRQQMEEKAPLPKYEESNLGLLESSVGDSRLPLVLRNLEEEAGVQDALNIREAISKAKATENGLVNGENSIPNGTRSENESLNQESKRAVEDAKGSSSDSTAGVKE
Question: For B1, which binding [1] is on record?
Answer: Its binding is “binds”.

Question: And the binding [2]?
Answer: The binding was “binds”.

Results are given in words; binding and its absence hold for the method and conditions named. Binding calls can cover weak binding; strength is not graded here. Where a sequence is shown, tags or fusion partners need not be part of it.
